This passage reports binding signal results from PMC7819943, “Rice protein-binding microarrays: a tool to detect cis-acting elements near promoter regions in rice”.

Protein sequences, listed by entry. Tags and fused reporters are not part of them.
UniProt Q0JBA9, entry or part of it: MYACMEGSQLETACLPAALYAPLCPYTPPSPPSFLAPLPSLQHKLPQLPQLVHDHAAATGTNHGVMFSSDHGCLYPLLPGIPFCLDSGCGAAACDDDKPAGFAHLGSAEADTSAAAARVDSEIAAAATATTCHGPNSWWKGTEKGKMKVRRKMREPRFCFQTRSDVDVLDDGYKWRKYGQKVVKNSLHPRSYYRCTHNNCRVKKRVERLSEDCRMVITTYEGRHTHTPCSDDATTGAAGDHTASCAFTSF

The other results are listed elsewhere or left out.

The experiment has as its target OsWRKY34 (Oryza sativa, UniProt Q0JBA9 1-250). Description: protein-binding microarray (RPBM); PBS, 2% BSA, 51.3 ng/ul salmon testes DNA, 50 uM zinc acetate, 200 nM TF, 25 C, 1 h; high values mean tight binding. The following applies: protein: recombinant; tags: N-terminal polyhistidine and DsRed monomer fusion (pET32a); label: CyDye5-dUTP incorporated in the synthesized complementary strand; 3' TTTTT single-stranded linker to array surface; dsDNA, one strand shown. In outline:
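Transcription factors were made in E. coli BL21-CodonPlus as N-terminal fusions to a polyhistidine tag and DsRed, then purified on Ni–NTA. After primer extension with Cy5-dUTP and blocking with 2% BSA, a custom Agilent array was exposed for 1 h at 25 °C to 200 nM protein in PBS, 2% BSA, salmon testes DNA and 50 µM zinc acetate. Washed arrays were scanned on an Axon 4000B, and the binding signal is per-feature fluorescence intensity in arbitrary units.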
On to “TCATTACCCATCACCAACTGCTACTTCATTTTACACTTGCCGGAGTCACCTAGTGCAG”, for which the binding signal was 12700 fluorescence intensity (a.u.). Next, “GCTTGCACTGTTTGACCATTCGTCTTATTTAAAAAATTTGCGGAGTCACCTAGTGCAG”: 10900 fluorescence intensity (a.u.).

In the case of “TTTGAGACTATTTGAAGCCAGCAGCATCACTCCATGTTCTCGGAGTCACCTAGTGCAG”, the binding signal is 10100 fluorescence intensity (a.u.). Next, “TGACAACCAATCACGTCCTTGCGACCTTGCCTCTGCTTCACGGAGTCACCTAGTGCAG”: 9290 fluorescence intensity (a.u.).

Take “GTTTGACTATTTTATGCCTTGTAGCTTGAGCTACAGTTCACGGAGTCACCTAGTGCAG”: the binding signal is 10100 fluorescence intensity (a.u.).

With “AAATTTGGTCGAACCTAAATAAGTTTGACTAAAACAGTTACGGAGTCACCTAGTGCAG”, the binding signal was 8610 fluorescence intensity (a.u.). The result for “CTATACCGGTTAACTAGCCAGCGCCATTTTCTACTTCTTACGGAGTCACCTAGTGCAG” reads 9540 fluorescence intensity (a.u.). The result for “GGTGGCTGCATATCTCTTTCATCTCTTCTCTCCTCCACCTCGGAGTCACCTAGTGCAG” reads 8980 fluorescence intensity (a.u.). Consider “TCCTGCTTATCGGATCCCACCAGACCCAATTTGAATTTTCCGGAGTCACCTAGTGCAG”, for which the binding signal was 11000 fluorescence intensity (a.u.).

Consider “ATGGACTCGTTTATTCCAAATTTTAGTTAGTTTTAAATTTCGGAGTCACCTAGTGCAG”, for which the binding signal was 9720 fluorescence intensity (a.u.). The result for “AGTGGGATGCACCTCTTCGTTTTTTTTTTTAAATTCCGATCGGAGTCACCTAGTGCAG” reads 10500 fluorescence intensity (a.u.); that for “CATTGATACGGCCGGTTTATGCTCTGCCTTTTTCTTTATTCGGAGTCACCTAGTGCAG”, 9650 fluorescence intensity (a.u.). Next, “CCTGCCAACCCCATCCCAGCCCTACACGTGTCCATCCTCACGGAGTCACCTAGTGCAG”: 10700 fluorescence intensity (a.u.); “TTCTGTCATCACTGTGCTTCCCCAGCCGGATTTGTTTTTGCGGAGTCACCTAGTGCAG”: 9020 fluorescence intensity (a.u.). Next, “ATTTGTACATTGTGCACATATATATTCTTCCTTCACCTATCGGAGTCACCTAGTGCAG”: 10500 fluorescence intensity (a.u.); “TTTTCTGGTTAAGGGGTATGAATTAGATTCCGCATAGTTTCGGAGTCACCTAGTGCAG”: 8420 fluorescence intensity (a.u.). For “AGCATTATACGAGCTTGGTATCCCCATGGTTTGAAATTTTCGGAGTCACCTAGTGCAG”, the binding signal is 9780 fluorescence intensity (a.u.). The result for “TGGTTTTGTTTGATCCTCCGGACTATTAAATAGTCTTTCACGGAGTCACCTAGTGCAG” reads 8450 fluorescence intensity (a.u.). As for “ATCCCAAATCACCCGTCACCGGCGGCCACGACCGCACCCGCGGAGTCACCTAGTGCAG”, the binding signal is 9280 fluorescence intensity (a.u.). The result for “AGTTCTTCAAGCTTTGCATATATATAAACACACATTCTGACGGAGTCACCTAGTGCAG” reads 9240 fluorescence intensity (a.u.); that for “CCTCCTAGTTCCCTCGGCATGCAGACGATCTGCCAGTTTACGGAGTCACCTAGTGCAG”, 11700 fluorescence intensity (a.u.); that for “AATTTACTACTACTTTGAATCGTTATTGCAAAAACGCCACCGGAGTCACCTAGTGCAG”, 8660 fluorescence intensity (a.u.). Next, “TTCATCGCCGACAGCCACCTCCGTCTGCCAGCTCACCCCGCGGAGTCACCTAGTGCAG”: 8410 fluorescence intensity (a.u.).
